Experimental data taken from PubChem BioAssay AID2685 (National Center for Advancing Translational Sciences (NCATS), 2010).
This is one part of the list. Shown are side measurements of this screen, not its main read-out; they come without a call. Compounds called inactive in the main read-out are mostly missing here. Potencies come from curve fits of mixed quality, noted in brackets.

Assay: qHTS Assay for Lipid Storage Modulators in Drosophila S3 Cells;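 on cell number change: cells counted by Cell Tracker Red CMTPX staining in the red channel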
Conditions: BODIPY lipid droplet fluorescence, 18-24 h; for cell number change: measured here: cell count max response, cells fed with added oleic acid
In short: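 Drosophila S3 cells loaded with oleic acid (400 uM, as added) and compounds at several concentrations; lipid droplets imaged by 488-nm laser-scanning cytometry, 500–530 nm intensity and object ratio to cell channel. Percent activity normalized to 20 uM Triacsin C.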

[1] = measured here: lipid fluorescence (Fed channel) AC50, cells fed with added oleic acid
[2] = measured here: cell number channel AC50, cells fed with added oleic acid

Row | SMILES | cell number change [%] | AC50 [1] | AC50 [2]
1 | COc1cc(N2C(=O)c3ccccc3C2=O)c(Cl)cc1C(=O)OCC(=O)N(C)C | -21.2 | 10 µM [falling, partial curve, poor fit] | –
2 | CCOc1cc(C(=O)N(C)c2ccccc2)cc(OCC)c1OCC | – | 6.51 µM [rising, single point] | 4.11 µM [rising, single point]
3 | Cc1ccc2cc(CCNC(=O)c3ccc4c(c3)OCO4)c(=O)[nH]c2c1C | – | 0.231 µM [rising, full curve, poor fit] | 0.146 µM [rising, full curve, poor fit]
4 | COc1ccc(C(C#N)c2ccc(Cl)nn2)cc1 (configuration not stated) | -34.6 | – | 0.103 µM [rising, full curve, poor fit]
5 | Clc1ccc(OCCCCN2CCc3ccccc3C2)cc1 | -14 | 6.51 µM [rising, partial curve, poor fit] | –
6 | Cc1cc(C(=O)N/N=C/c2ccc3ccccc3c2)n[nH]1 | -1.42 | 29.1 µM [rising, single point] | –
7 | CCOC(=O)c1c(C)[nH]c(C(=O)Nc2ccc3c(c2)OCO3)c1C | 20.6 | 0.731 µM [rising, full curve, poor fit] | 0.146 µM [rising, full curve, poor fit]
8 | Cc1ccc(S(=O)(=O)N2CCN(CC(=O)Nc3ccnn3C3CCCC3)CC2)cc1 | -0.683 | 0.0058 µM [falling, full curve, poor fit] | –
9 | O=C1CCCN1CCCNC(=S)Nc1ccc(F)c(Cl)c1 | 72.3 | – | 29.1 µM [rising, single point]
10 | CC(=O)c1cccc(N(CC(=O)N2CCOCC2)S(C)(=O)=O)c1 | -15.1 | 2.59 µM [falling, full curve, poor fit] | –
11 | O=C(COC(=O)C1=COCCO1)Nc1ncc(C(F)(F)F)cc1Cl | -0.0089 | 0.231 µM [falling, full curve, poor fit] | –
12 | Cc1ccc(S(=O)(=O)N2CCCCC2)cc1NC(=O)CSCC(=O)O | -23.5 | 0.651 µM [falling, full curve] | –
13 | OC(Cc1ccncc1)(c1ccccc1)c1ccccc1 | 19.4 | 29.1 µM [falling, single point] | –
14 | Cc1cccc(NC(=O)Cn2nc(-c3ccco3)ccc2=O)c1C | 3.36 | 6.51 µM [falling, single point] | –
15 | CCN(CC)c1ccc(C(=O)OCC(=O)N(C)Cc2ccccc2)cc1 | 17.2 | 29.1 µM [falling, single point] | –
16 | CC1CN(C(=O)c2cccc(S(=O)(=O)N3CCOCC3)c2)CC(C)O1 (configuration not stated) | 1.69 | – | –
17 | CCn1c2ccccc2c2nnc(SCCN3CCOCC3)nc21 | -14.6 | 11.6 µM [falling, single point] | –
18 | CCCC(CCC)C(=O)Nc1c[nH]c(=O)[nH]c1=O | 8.96 | 0.00651 µM [rising, full curve, poor fit] | –
19 | CCCCNC(=S)N(C)N=C1CCC(c2ccccc2)CC1 (configuration not stated) | 23.6 | – | –

Row | SMILES | cell number change [%] | AC50 [1] | AC50 [2]
20 | Cc1nc2ccccc2n1CCC(=O)O | 9.46 | 29.1 µM [falling, single point] | –
21 | Cc1ccc(-n2nnnc2SCc2nnc(-c3ccccc3Br)o2)c(C)c1 | -34.2 | – | 16.4 µM [falling, partial curve]
22 | O=C(NN1C(=O)c2ccc(-c3ccc4c(c3)C(=O)N(NC(=O)c3cccnc3)C4=O)cc2C1=O)c1cccnc1 | -9.62 | – | –
23 | CCCCn1c(=O)nc2n(-c3ccc(OC)cc3)c3ccccc3cc-2c1=O | 36.9 | 29.1 µM [rising, partial curve, poor fit] | 0.103 µM [rising, full curve, poor fit]
24 | COc1ccc(OC)c(S(=O)(=O)n2nnc3ccccc32)c1 | -25.9 | 2.31 µM [falling, full curve] | 0.0259 µM [falling, full curve]
25 | CCCc1cc(C(=O)N2CCCC(Cc3ccccc3C)(C(=O)OCC)C2)no1 (configuration not stated) | -2.29 | 29.1 µM [rising, single point] | –
26 | CCc1ccc(CN(Cc2cccnc2)C(=O)/C=C/c2ccc(OC)cc2)cc1 | 22.1 | 29.1 µM [falling, single point] | –
27 | CNC(=O)Nc1cc(C(F)(F)F)cc(C(F)(F)F)c1 | 44.2 | 7.31 µM [rising, partial curve] | 29.1 µM [rising, single point]
28 | COc1ccc(/C=C/C(=O)CC(O)(c2ccccc2)C(F)(F)F)cc1 (configuration not stated) | -22.8 | 20.6 µM [falling, partial curve] | –
29 | O=C(NCC1CCCO1)c1cccc(Oc2c(Cl)cccc2[N+](=O)[O-])c1 (configuration not stated) | -53 | 25.9 µM [falling, partial curve, poor fit] | 13 µM [falling, partial curve, poor fit]
30 | Cc1cccc(CSCCNC(=O)Nc2ccccc2)c1 | 19.4 | 11.6 µM [rising, single point] | –
31 | CN(C)c1ccc(/C=N/NC(=O)C2CC2c2ccccc2)cc1 (configuration not stated) | -12.8 | 29.1 µM [falling, single point] | –
32 | COc1ccc(OC)c(NC(=O)CSc2nnc3ccc(-c4ccncc4)nn23)c1 | – | 0.58 µM [falling, single point] | –
33 | CSCCC(NC(=O)C12CC3CC(CC(C3)C1)C2)C(=O)OCC(=O)c1ccc(C)cc1 (configuration not stated) | 44.3 | 1.46 µM [falling, full curve] | 6.51 µM [rising, full curve, poor fit]
34 | CCC(C(=O)OCC(=O)NC(=O)c1ccccc1)c1ccccc1 (configuration not stated) | -25 | 29.1 µM [falling, single point] | –
35 | COc1ccc(C2CCCN2C(=O)c2cccs2)cc1 (configuration not stated) | 22.5 | 29.1 µM [rising, single point] | –
36 | COc1ccc(OC)c(C2SCCN2S(=O)(=O)c2cccc(C(F)(F)F)c2)c1 (configuration not stated) | -16.6 | 32.6 µM [falling, single point] | –
37 | CN(c1ccc(C(=O)NC2CCCC2)cc1)S(=O)(=O)c1ccc(Cl)cc1 | -16.1 | 18.4 µM [falling, partial curve, poor fit] | –
38 | CCc1ccccc1NC(=O)CCc1c(C)nc(SC)nc1C | – | 0.116 µM [falling, partial curve, poor fit] | –

Row | SMILES | cell number change [%] | AC50 [1] | AC50 [2]
39 | O=C(c1cc2ccccc2oc1=O)N1CCN(Cc2ccc3c(c2)OCO3)CC1 | -7.42 | 0.731 µM [rising, single point] | –
40 | CCOC(=O)Nc1n[nH]c(NC(=O)OCC)c1[N+](=O)[O-] | -1.14 | – | 0.326 µM [rising, full curve]
41 | Cc1ccnc(NS(=O)(=O)c2ccc(NC(=O)C3COc4ccccc4O3)cc2)n1 (configuration not stated) | -4.37 | – | 6.51 µM [falling, partial curve, poor fit]
42 | O=C(NCC(=O)N1CCN(c2ncccn2)CC1)c1ccc(F)cc1 | 30.2 | 2.59 µM [rising, full curve] | 2.91 µM [rising, full curve]
43 | CC(C)c1nc2sc3c(=O)[nH]cnc3c2c2c1CCCC2 | -14.5 | 0.146 µM [falling, full curve, poor fit] | –
44 | NS(=O)(=O)c1ccc(NC(=O)COC(=O)C2(c3ccccc3F)CCCC2)cc1 | 49.1 | 29.1 µM [rising, single point] | 29.1 µM [rising, single point]
45 | O=C(NCc1ccco1)/C(=C/c1ccc(F)cc1)NC(=O)c1ccccc1 | 31 | 0.82 µM [rising, partial curve, poor fit] | –
46 | COc1cc2[nH]c(=O)n(CCC(=O)N3CCN(Cc4ccc5c(c4)OCO5)CC3)c(=O)c2cc1OC | 49.7 | 2.59 µM [rising, full curve] | 29.1 µM [rising, single point]
47 | Cc1csc2nc(CSc3nncn3-c3ccccc3)c(Br)n12 | 25.7 | 1.16 µM [rising, partial curve] | –
48 | CCc1nnc(NC(=O)CCS(=O)(=O)c2ccccc2)s1 | -0.451 | – | –
49 | Fc1cnc(N2CCN(c3ccccc3)CC2)nc1N1CCN(c2ccccc2)CC1 | 40 | – | 6.51 µM [rising, partial curve]
50 | O=C1CCC(C(=O)N2CCCC2)CN1CCc1cccc(F)c1 (configuration not stated) | 33.4 | – | 1.64 µM [rising, full curve, poor fit]
51 | O=C(NCC(=O)N1CCN(S(=O)(=O)c2cccs2)CC1)c1ccc(Cl)cc1 | 72.5 | – | –
52 | COc1ccc(C(C)(C)C)cc1S(=O)(=O)N1CCN(C)CC1 | 4.25 | 6.51 µM [rising, single point] | –
53 | CCCOc1ccc(C(=O)NNC(=S)NC(=O)c2ccccc2[N+](=O)[O-])cc1 | -46 | 5.8 µM [falling, single point] | 32.6 µM [falling, partial curve]
54 | CCN(CC)c1ccc(C2=NNC(=O)CC2C)cc1[N+](=O)[O-] (configuration not stated) | – | 3.66 µM [rising, partial curve] | 3.26 µM [rising, partial curve]
55 | CCOC(=O)CSc1cc(CS(=O)(=O)c2ccccc2)nc(-c2ccccc2)n1 | 9.61 | 3.26 µM [falling, single point] | –
56 | Cc1ccc(C(=O)C2CCN(CC(=O)Nc3ccc4c(c3)OCCO4)CC2)cc1 | -2.16 | – | 0.58 µM [rising, partial curve]
57 | CCc1ccccc1N(C(=O)c1ccco1)C(C(=O)NC1CCCC1)c1cccnc1 (configuration not stated) | 3.81 | 29.1 µM [falling, single point] | –

Reformatted: entries from further up.
Row	SMILES	cell number change [%]	AC50 [1]	AC50 [2]
46	COc1cc2[nH]c(=O)n(CCC(=O)N3CCN(Cc4ccc5c(c4)OCO5)CC3)c(=O)c2cc1OC	49.7	2.59 µM [rising, full curve]	29.1 µM [rising, single point]
47	Cc1csc2nc(CSc3nncn3-c3ccccc3)c(Br)n12	25.7	1.16 µM [rising, partial curve]	–
48	CCc1nnc(NC(=O)CCS(=O)(=O)c2ccccc2)s1	-0.451	–	–
49	Fc1cnc(N2CCN(c3ccccc3)CC2)nc1N1CCN(c2ccccc2)CC1	40	–	6.51 µM [rising, partial curve]
